In the supplement of paper PMC8728848:
The list shows a part of the results.

Assays:
Assay in all cases: glycan array binding signal (z-score within array); higher = stronger binding
Settings in all cases: glycan notation: IUPAC condensed, linker removed
[1] = target: Gal(b1-3)GlcNAc(a1-6)Gal(b1-4)GlcNAc
In short: (§1)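 Negative Z-scores can be read as non-binding. The Z-score is calculated within each array and then averaged across arrays of one protein sequence at different concentrations or buffers and across linkers. Arrays, 3228 in all, were curated from the Consortium for Functional Glycomics database and kept only where the protein sequence was available.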

[2] = target: Gal(b1-3)GlcNAc(b1-2)Man(a1-3)[Gal(b1-3)GlcNAc(b1-2)Man(a1-6)]Man(b1-4)GlcNAc(b1-4)GlcNAc
In short: as §1

[3] = target: Gal(b1-3)GlcNAc(b1-2)Man(a1-3)[Gal(b1-3)GlcNAc(b1-2)Man(a1-6)]Man(b1-4)GlcNAc(b1-4)[Fuc(a1-6)]GlcNAc
In short: as §1

[4] = target: Gal(b1-3)GlcNAc(b1-2)[Gal(b1-3)GlcNAc(b1-6)]Man(a1-6)[Gal(b1-3)GlcNAc(b1-2)Man(a1-3)]Man(b1-4)GlcNAc(b1-4)GlcNAc
In short: as §1

[5] = target: Gal(b1-3)GlcNAc(b1-3)Gal(b1-3)GlcNAc
In short: as §1

[6] = target: Gal(b1-3)GlcNAc(b1-3)Gal(b1-4)Glc
In short: as §1

[7] = target: Gal(b1-3)GlcNAc(b1-3)Gal(b1-4)GlcNAc
In short: as §1

[8] = target: Gal(b1-3)GlcNAc(b1-3)Gal(b1-4)GlcNAc(b1-6)[Gal(b1-3)GlcNAc(b1-3)]Gal(b1-4)Glc
In short: as §1

[9] = target: Gal(b1-3)GlcNAc(b1-3)Gal(b1-4)[Fuc(a1-3)]GlcNAc(b1-6)[Gal(b1-3)GlcNAc(b1-3)]Gal(b1-4)Glc
In short: as §1

[10] = target: Gal(b1-3)GlcNAc(b1-3)GalNAc
In short: as §1

[11] = target: Gal(b1-3)GlcNAc(b1-6)Gal(b1-4)GlcNAc
In short: as §1

[12] = target: Gal(b1-3)[Fuc(a1-4)]GlcNAc
In short: as §1

[13] = target: Gal(b1-3)[Fuc(a1-4)]GlcNAc(b1-2)Man(a1-3)[Gal(b1-3)[Fuc(a1-4)]GlcNAc(b1-2)Man(a1-6)]Man(b1-4)GlcNAc(b1-4)GlcNAc
In short: as §1

[14] = target: Gal(b1-3)[Fuc(a1-4)]GlcNAc(b1-2)Man(a1-3)[Gal(b1-3)[Fuc(a1-4)]GlcNAc(b1-2)Man(a1-6)]Man(b1-4)GlcNAc(b1-4)[Fuc(a1-6)]GlcNAc
In short: as §1

[15] = target: Gal(b1-3)[Fuc(a1-4)]GlcNAc(b1-3)Gal(b1-3)[Fuc(a1-4)]GlcNAc
In short: as §1

[16] = target: Gal(b1-3)[Fuc(a1-4)]GlcNAc(b1-3)Gal(b1-4)GlcNAc
In short: as §1

[17] = target: Gal(b1-3)[Fuc(a1-4)]GlcNAc(b1-3)Gal(b1-4)[Fuc(a1-3)]GlcNAc
In short: as §1

[18] = target: Gal(b1-3)[GlcNAc(b1-6)]GalNAc
In short: as §1

[19] = target: Gal(b1-3)[Neu5Ac(a2-6)]GalNAc
In short: as §1

[20] = target: Gal(b1-3)[Neu5Ac(a2-6)]GlcNAc(b1-6)Gal(b1-4)Glc
In short: as §1

[21] = target: Gal(b1-3)[Neu5Ac(b2-6)]GalNAc
In short: as §1

[22] = target: Gal(b1-4)Gal
In short: as §1

[23] = target: Gal(b1-4)GalNAc(a1-3)[Fuc(a1-2)]Gal(b1-4)GlcNAc
In short: as §1

[24] = target: Gal(b1-4)GalNAc(b1-3)[Fuc(a1-2)]Gal(b1-4)GlcNAc
In short: as §1

[25] = target: Gal(b1-4)Glc
In short: as §1

[26] = target: Gal(b1-4)Glc6S
In short: as §1

[27] = target: Gal(b1-4)GlcNAc
In short: as §1

[28] = target: Gal(b1-4)GlcNAc(a1-6)Gal(b1-4)GlcNAc
In short: as §1

[29] = target: Gal(b1-4)GlcNAc(b1-2)Man
In short: as §1

[30] = target: Gal(b1-4)GlcNAc(b1-2)Man(a1-3)Man(b1-4)GlcNAc(b1-4)GlcNAc
In short: as §1

B1: RetS (Pseudomonas aeruginosa), Q9HUV7 (protein)
chain: MVRLRIAIGLLVSFLLLLLGPMSPAVADDAGVSSVPLQTTATTPSANQNWRLLRDESAQLRIADVLQRKEQFRPLAKRSFIFPASPQAVWLQVQLPAQKVPSWLWIFAPRVQYLDYYLVQDGQLVRDQHTGESRPFQERPLPSRSYLFSLPVDGKPMTLYVRMTSNHPLMAWFDQIDEAGLVGLEKPAYAFGMLLGGMLLLLMYNLIRFAYSRSASSLWLAAVHAALAVCAAANLGLVAFWLPGLKFNQSLTADLGALGAAVSLLWFACSFFRGTAESRLNRLLQGEALLILAVGAIIAFTQQLWFSWLIYLLVILSSLSVPLIAAWHWYRGYQPARLIVAGMIVFNAGFMVFLPVLFGTKQLDPGWLVLGVFSFATLAGLVLSVSLTERQRLIQQLNLQQRTSEAAHTAELQTKAEFLAKISHEIRTPMNGVLGMTELLLGTPLSAKQRDYVQTIHSAGNELLTLINEILDISKLESGQIELDEVQFDLNALIEDCLDIFRVKAEQQRIELISFTQPQVPRVIGGDPTRLRQVVLSLLDNAFKQTEEGEILLVVALDDQGETPRLRIAVQDSGHPFDAKEREALLTAELHSGDFLSASKLGSHLGLIIARQLVRLMGGEFGIQSGSSQGTTLSLTLPLDPQQLENPTADLDGPLQGARLLVVDDNETCRKVLVQQCSGWGLNVSAVSSGKEALAQLRTKAHLREYFDVVLLDQDMPGMTGMQLAAKIKEDPNLNHDILLIMLTGISNAPSKIIARNAGIKRILAKPVAGYTLKATLADELAQRGVSGVTNYLQPAKEAQAPSLPSDFRILVAEDNSISTKVIRGMLNKLNLQPDTASNGQEALSAMKATQYDLVLMDCEMPVLDGFSATEQLRAWEAHEQRPHTPVVALTAHILSEHKERARLVGMDGHMAKPVELSQLRELIAYWVGERDRRRQGDALPS
- glycan array binding signal (z-score) [1]: -0.237
- glycan array binding signal (z-score) [2]: -0.523
- glycan array binding signal (z-score) [3]: 1.34
- glycan array binding signal (z-score) [4]: -0.323
- glycan array binding signal (z-score) [5]: -0.583
- glycan array binding signal (z-score) [6]: 2.45
- glycan array binding signal (z-score) [7]: -0.887
- glycan array binding signal (z-score) [8]: -0.357
- glycan array binding signal (z-score) [9]: -0.104
- glycan array binding signal (z-score) [10]: 0.207
- glycan array binding signal (z-score) [11]: -0.132
- glycan array binding signal (z-score) [12]: -0.542
- glycan array binding signal (z-score) [13]: 0.24
- glycan array binding signal (z-score) [14]: -0.397
- glycan array binding signal (z-score) [15]: 0.772
- glycan array binding signal (z-score) [16]: 0.071
- glycan array binding signal (z-score) [17]: -0.621
- glycan array binding signal (z-score) [18]: -0.436
- glycan array binding signal (z-score) [19]: -0.419
- glycan array binding signal (z-score) [20]: 0.022
- glycan array binding signal (z-score) [21]: -0.352
- glycan array binding signal (z-score) [22]: 3.18
- glycan array binding signal (z-score) [23]: 0.473
- glycan array binding signal (z-score) [24]: -0.338
- glycan array binding signal (z-score) [25]: -0.481
- glycan array binding signal (z-score) [26]: 0.168
- glycan array binding signal (z-score) [27]: -0.317
- glycan array binding signal (z-score) [28]: 0.457
- glycan array binding signal (z-score) [29]: 0.048
- glycan array binding signal (z-score) [30]: -0.97
